Experimental data as given in patent US8859543B2, “Imidazo[1,2-a]pyrazine derivatives and their use for the prevention or treatment of neurological, psychiatric and metabolic disorders and diseases” (Janssen Pharmaceutica NV, priority 2010, dated 2014).

System: scopolamine induced memory deficit
Experiment: Object recognition test (scopolamine induced memory deficit)
Assay type: in vivo, rat
Conditions: 1 mg/kg p.o. + Scop. 0.1 mg/kg, rats
Description: They were kept under a 12/12-hour light/dark cycle (lights on from 19.00 to 7.00 h) and had free access to food and water. […] A radio, which was playing softly, provided background noise in the room. […] The apparatus consisted of a circular arena, 83 cm in diameter. […] The light intensity was equal in the different parts of the apparatus, as fluorescent red tubes provided a constant illumination of about 20 lux on the floor of the apparatus. […] Each object was available in triplicate. Four different sets of objects were used. A testing session consisted of two trials. […] During the first trial (T1) the apparatus contained two identical objects (samples). Rats were placed in the apparatus facing the wall at the middle of the front (transparent) segment. After the first exploration period the rat was put back in its home cage. […] Exploration was defined as follows: directing the nose to the object at a distance of no more than 2 cm and/or touching the object with the nose. Sitting on the object was not considered as exploratory behavior.

SMILES: COc1cc2ncnc(N3CC[C@@H](Oc4cnc5ccccc5n4)C3)c2cc1OC [PQ10, 6,7-dimethoxy-4-[3(R)-(quinoxalin-2-yloxy)pyrrolidin-1-yl]quinazoline]
- exploration time first trial (e1), mean: 22.32 s
- exploration time second trial (e2), mean: 22.63 s
